Results from patent publication US20220326125A1, “BIOLOGICAL TISSUE STAINING REAGENT, BIOLOGICAL TISSUE STAINING KIT AND BIOLOGICAL TISSUE STAINING METHOD” (CUBICStars, Inc., priority 2019, published 2022).

Test system: defatted mouse cerebral hemisphere
Experiment: 3D nuclear staining at different salt concentrations
Settings: H-S and CUBIC-1A at the higher NaCl concentration (500 mM vs 5 or 25 mM); 32° C., 24 hours
Description: A defatted cerebral hemisphere cut out from the whole brain was provided as a sample.
For investigating the effect of the NaCl concentration, the NaCl concentration in CUBIC-1A was set to 25 mM or 500 mM, and NaCl was added to H-S to 5 mM or 500 mM. The sample was washed with PBS, and then soaked in PBS containing 40% by weight sucrose. From each sample obtained, a frozen section was prepared. For post-2D staining, the frozen section was soaked in PBS containing DAPI (1:500; manufactured by Dojindo Molecular Technologies; #D0523) at room temperature for 30 minutes.

CC[N+](C)(CC)CCC[n+]1c(-c2ccccc2)c2cc(N)ccc2c2ccc(N)cc21.[I-].[I-] [PI, propidium iodide, reference compound]
uniformity of nuclear staining images: more uniform nuclear staining images

SYTO 16
uniformity of nuclear staining images: more uniform nuclear staining images
